According to PMC3549491, “Structural Basis of the Intracellular Sorting of the SNARE VAMP7 by the AP3 Adaptor Complex” (Developmental Cell, 2012):
Results are given in words; binding and its absence hold for the method and conditions named. Binding seen in cells or lysates may run through a third protein.

Biological target: T1, wild-type δ-adaptin expressed in mocha fibroblasts (in AP3) (UniProt O14617)
T1 sequence: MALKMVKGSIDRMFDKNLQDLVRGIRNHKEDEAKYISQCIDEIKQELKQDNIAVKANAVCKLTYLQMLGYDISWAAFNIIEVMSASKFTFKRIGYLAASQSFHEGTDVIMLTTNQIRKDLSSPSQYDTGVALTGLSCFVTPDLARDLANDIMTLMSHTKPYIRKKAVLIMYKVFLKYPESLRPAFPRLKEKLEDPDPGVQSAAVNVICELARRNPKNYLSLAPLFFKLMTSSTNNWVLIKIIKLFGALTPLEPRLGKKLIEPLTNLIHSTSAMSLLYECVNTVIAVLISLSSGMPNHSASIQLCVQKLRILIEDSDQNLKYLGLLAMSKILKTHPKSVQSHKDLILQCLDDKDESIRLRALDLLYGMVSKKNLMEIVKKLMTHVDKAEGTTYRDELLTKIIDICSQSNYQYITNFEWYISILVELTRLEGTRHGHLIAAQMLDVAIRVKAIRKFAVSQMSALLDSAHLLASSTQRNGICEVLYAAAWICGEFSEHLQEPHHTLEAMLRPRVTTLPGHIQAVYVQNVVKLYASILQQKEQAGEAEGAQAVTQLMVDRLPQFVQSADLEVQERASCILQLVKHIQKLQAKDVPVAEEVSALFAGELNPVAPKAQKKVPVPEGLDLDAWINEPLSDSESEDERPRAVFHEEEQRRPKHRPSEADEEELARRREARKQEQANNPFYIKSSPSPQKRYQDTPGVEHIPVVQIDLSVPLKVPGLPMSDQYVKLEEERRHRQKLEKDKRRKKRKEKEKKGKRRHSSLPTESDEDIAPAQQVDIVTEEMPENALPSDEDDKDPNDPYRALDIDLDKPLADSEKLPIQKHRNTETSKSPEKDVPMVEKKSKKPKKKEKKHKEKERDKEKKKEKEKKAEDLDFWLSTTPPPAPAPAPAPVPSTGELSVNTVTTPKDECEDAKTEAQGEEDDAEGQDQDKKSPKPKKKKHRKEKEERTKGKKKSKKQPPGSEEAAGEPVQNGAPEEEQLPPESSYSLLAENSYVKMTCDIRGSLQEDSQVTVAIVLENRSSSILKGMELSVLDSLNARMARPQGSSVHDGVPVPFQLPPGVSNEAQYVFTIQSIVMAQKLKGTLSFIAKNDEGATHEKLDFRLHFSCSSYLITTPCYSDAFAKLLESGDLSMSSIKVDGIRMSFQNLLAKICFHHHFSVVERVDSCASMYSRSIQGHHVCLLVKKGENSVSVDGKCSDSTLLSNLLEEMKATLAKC
Test: co-IP; native immunoprecipitation with antibodies to δ-adaptin from transduced mocha fibroblasts; immunoblotting; bands quantified with ImageJ

B1: endogenous VAMP8 (protein, UniProt O70404 1-101)
chain: MEEASGSAGNDRVRNLQSEVEGVKNIMTQNVERILSRGENLDHLRNKTEDLEATSEHFKTTSQKVARKFWWKNVKMIVIICVIVLIIVILIILFATGTIPT
- binding: no binding
